Holding throughout (assay): normalised response (% of control), CellTox Green; higher = less cell death (100 = DMSO, 0 = benzethonium chloride kill control)
What all share (conditions): incubation time: 72 h

One experiment deals with BT-474. On the procedure:
(§1)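 DSRT, 72 h incubation, CellTox Green / CellTiter-Glo readout. Signal is normalised to DMSO and benzethonium chloride controls. Value is the normalised response at the lowest tested concentration.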

For a further experiment, the system named is BT-549. On the procedure:
as §1

The next experiment relates to CAL-120. On the procedure:
as §1

A further experiment relates to CAL-148. The procedure: as §1
Another experiment has as its system CAL-51. The procedure:
as §1

The next experiment concerns CAL-85-1. On the procedure:
as §1

The test system of the next experiment is DU-4475. On the procedure: as §1
The next experiment has as its system HCC1143. On the procedure: as §1
In the next experiment the test system is HCC1599. On the procedure:
as §1

A further experiment has as its system HCC1937. The procedure:
as §1

For another experiment, the system named is HDQ-P1. The procedure:
as §1

For the next experiment, the system named is Hs578T. The procedure:
as §1

The subject of the next experiment is MCF-10A. On the procedure:
as §1

For a further experiment, the system named is MDA-MB-231. The procedure:
as §1

In another experiment the test system is MDA-MB-436. The procedure: as §1
The next experiment concerns MDA-MB-453. The procedure: as §1
In a further experiment the test system is MDA-MB-468. On the procedure:
as §1

Another experiment relates to MFM-223. The procedure: as §1

Molecules are shown by their SMILES. Most entries show no effect beyond the scatter of the controls.

In the case of `CO[C@H]1C[C@@H]2CC[C@@H](C)[C@@](O)(O2)C(=O)C(=O)N2CCCC[C@H]2C(=O)O[C@H]([C@H](C)C[C@@H]2CC[C@@H](O)[C@H](OC)C2)CC(=O)[C@H](C)/C=C(\C)[C@@H](O)[C@@H](OC)C(=O)[C@H](C)C[C@H](C)/C=C/C=C/C=C/1C` [Sirolimus] (0.01 nM), the normalised response is 100% in the experiment on BT-474; 91.4% in the experiment with BT-549; 98.3% in the experiment on CAL-120; 82% with CAL-148; 103% in the experiment on CAL-51; 103% in the experiment on CAL-85-1. Further, the normalised response in the experiment on DU-4475 amounted to 106%; with HCC1143 it was 75.2%; in the experiment on HCC1599, 107%; in the experiment on HCC1937 it was 98.7%; in the experiment with HDQ-P1, 100%; in the experiment on Hs578T, 107%. Also, the normalised response worked out at 106% in the experiment on MCF-10A; 99.9% in the experiment on MDA-MB-231; 86.5% in the experiment with MDA-MB-436; 103% with MDA-MB-453; 101% with MDA-MB-468; 104% in the experiment on MFM-223.

For the compound `Oc1ncc(N(CCCl)CCCl)c(O)n1` [Uracil mustard] (1 nM), the normalised response amounted to 101% with BT-474; 90% with BT-549; 108% with CAL-120; 78.6% with CAL-148; 108% in the experiment on CAL-51; 97.7% with CAL-85-1. The normalised response was 114% in the experiment with DU-4475; 63.9% with HCC1143; 126% with HCC1599; 61.4% with HCC1937; 85% in the experiment on HDQ-P1; 118% in the experiment with Hs578T. Moreover, the normalised response with MCF-10A turned out to be 106%; with MDA-MB-231, 117%; in the experiment on MDA-MB-436, 110%; in the experiment on MDA-MB-453, 96.3%; in the experiment on MDA-MB-468 it was 81.9%; with MFM-223 it was 105%.
